# Taken from: PubChem BioAssay AID504786 (Drosophila RNAi Screening Center, 2011)
# Screen: 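Knock-downs reducing HIF reporter induction by the iron chelator DFO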 (primary screen)
# Cell system: Drosophila S2 cells with a stable HIF luciferase reporter
# Reagents: long dsRNA against Drosophila genes, about 0.2 µg dsRNA per well of a 384-well plate
# Duration: three days of knock-down, then 20 h of DFO before reading
# Conditions: desferrioxamine (DFO) at 100 µM, an iron chelator that mimics hypoxia, for 20 h
# Measurement: 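HIF reporter luminescence in cells given 100 µM DFO for 20 h, using the mouse ldh-a hypoxia-response element, scored as per-plate z-scores; higher means greater loss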
# Scale: z-score: higher = stronger loss of HIF reporter signal
# The deposit covers about 21,000 reagents; shown is an unselected part of those with a known target gene and a result. 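Primary screen; positive scores mean lost reporter signal, so the sign may be inverted from the usual convention.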 The numbers tell different reagents against one gene apart. Names joined by + are all predicted targets of the reagent. Reagent sequences are not shown.
target gene,reagent,"z-score, replicate 1","z-score, replicate 2","z-score, replicate 3","z-score, replicate 4"
sbr (small bristles),1,0.7,3.1,,
sbr (small bristles),2,4.1,4.2,,
beg (bad egg),1,-0.2,-0.1,,
CG13471,1,0.2,0.5,,
CalpB (Calpain-B),1,-0.3,0,,
Cyp18a1 (Cytochrome P450 18a1),1,-0.6,0,,
CG3107,1,-0.3,-0.5,,
CG13640,1,-0.3,0.9,,
CG17109,1,-0.5,-0.5,,
CG2120,1,-0.3,-0.8,,
Pgam5-2 (Phosphoglycerate mutase 5-2),1,-0.2,-0.1,,
aru (arouser),1,-0.3,-0.3,,
CG12645,1,-0.1,0.4,,
CG4477,1,-0.2,0.1,,
Antp (Antennapedia),1,0,1.1,,
CG42374 + Mettl5,1,-0.3,-0.4,,
Pld (Phospholipase D),1,-0.3,-0.4,,
OtopLb (Otopetrin-like b),1,-0.4,-0.6,,
comt (comatose),1,-0.4,-0.3,,
app (approximated),1,-0.3,-0.5,,
app (approximated),2,-0.4,-0.2,,
app (approximated),3,-0.2,-0.2,,
CG13717 (retired record),1,-0.7,-0.5,,
CG13717 (retired record),2,-0.5,-0.9,,
CG13717 (retired record),3,1.1,1,,

6 entries from above, ordered by “z-score, replicate 2”, descending.
target gene,reagent,"z-score, replicate 1","z-score, replicate 2","z-score, replicate 3","z-score, replicate 4"
Antp (Antennapedia),1,0,1.1,,
CG12645,1,-0.1,0.4,,
CG4477,1,-0.2,0.1,,
Pgam5-2 (Phosphoglycerate mutase 5-2),1,-0.2,-0.1,,
aru (arouser),1,-0.3,-0.3,,
CG42374 + Mettl5,1,-0.3,-0.4,,

The results go on.
target gene,reagent,"z-score, replicate 1","z-score, replicate 2","z-score, replicate 3","z-score, replicate 4"
nrv1 (nervana 1),1,-0.4,-0.6,,
CG14834,1,-0.2,-0.2,,
CG10730,1,-0.3,-0.2,,
CG13442,1,-0.3,-0.1,,
CG15625,1,-0.1,0.3,,
CG1602,1,-0.2,0,,
Trmt6 (tRNA methyltransferase 6 non-catalytic subunit),1,-0.4,-0.1,,
CG7741,1,-0.2,-0.1,,
CR31958 (pseudo),1,-0.4,-0.2,,
Ctns (Cystinosin),1,-0.1,-0.4,,
Cpr67Fa1 (Cuticular protein 67Fa1),1,-0.3,-0.4,,
mxt (mextli),1,-0.2,-0.4,,
Fancl,1,-0.1,-0.2,,
Cyp4p1 (Cytochrome P450 4p1),1,-0.4,-0.2,,
BigH1 (Histone H1 variant BigH1),1,-0.3,-0.1,,
mRpL45 (mitochondrial ribosomal protein L45),1,2.4,1.7,,
MTF-1 (Metal response element-binding Transcription Factor-1),1,-0.2,0.3,,
MTF-1 (Metal response element-binding Transcription Factor-1),2,-0.3,-0.5,-0.1,0
RnrL (Ribonucleoside diphosphate reductase large subunit),1,2.7,3.5,,
CG31998,1,-0.2,-0.4,,
CG31998,2,-0.2,-0.5,,
CG15177,1,-0.4,0,,
Spn31A (Serpin 31A),1,-0.4,-0.5,,
ninaB (neither inactivation nor afterpotential B),1,-0.3,-0.5,,
CG3793,1,-0.5,-0.6,,
CG12464,1,-0.2,0.1,,
inaF-B,1,-0.2,-0.2,,
Vha68-1 (Vacuolar H[+] ATPase 68kD subunit 1),1,-0.3,-0.9,,
Smg6,1,-0.2,-0.1,,
CG5255,1,-0.4,-0.1,,
CG42304 + Snup,1,0.2,1,,
CG42304 + Snup,2,-0.4,-0.5,,
